Some entries share one result that the patent states for a list of compounds.
Columns and labels:
Assay type in all cases: cell-based, human
[1] = tested on: NHDF cells; assay: Production of carbonylated proteins, OxyBlot; settings: 50 μM or 100 μM, precultured 24 hours, UV-B 25 mJ/cm2, control 1%, UV-B alone about 1.5%
[2] = tested on: MMP-1; assay: MMP-1 gene expression after UV-B irradiation, real-time PCR; settings: NHDF cells, UV-B 25 mJ/cm2; UV irradiation alone about 4.8-fold
[3] = tested on: activator protein-1 (AP-1); assay: AP-1 transactivation, luciferase reporter assay; settings: NHDF cells, 50 μM, 24 hours, UV-B 25 mJ/cm2, then 12 hours; control = 1, UV-B alone about 7-fold

Compound | ratio of the carbonylated proteins with respect to the control [1] | expression of MMP-1 with respect to the housekeeping gene (Gene/GAPDH) [2] | AP-1 transcriptional ratio with respect to the control [3]
CC(C)(O)C(OC(=O)/C=C/c1ccc(O)c(O)c1)C(=O)OCc1ccc(O[C@@H]2O[C@H](CO)[C@@H](O)[C@H](O)[C@H]2O)c(O)c1 (stereo partly drawn) [4G3HBE, 2-caffeoyl-3-hydroxy-3-methylbutyric 4′-β-D-glucopyranosyloxy-3′-hydroxybenzyl ester] | 1.1% to 1.2 | 1.8- to 2.2 fold | 3- to 4 fold
CC(C)(O)C(OC(=O)/C=C/c1ccc(O)c(O)c1)C(=O)OCc1ccc(O[C@@H]2O[C@H](CO)[C@@H](O)[C@H](O)[C@H]2O)cc1 (stereo partly drawn) [4GBE, 2-caffeoyl-3-hydroxy-3-methylbutyric 4′-β-D-glucopyranosyloxybenzyl ester] | 1.1% to 1.2 | 1.8- to 2.2 fold | 3- to 4 fold

Source: patent publication US20220298196A1, “NOVEL COMPOUND DERIVED FROM WATERMELON, AND COMPOSITION USING SAME” (HAGIHARA FARM PRODUCTION INSTITUTE CO., LTD., priority 2019, published 2022)
